Measured data: PubChem BioAssay AID1508597 (Cure First, 2020)

Screen: 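Genes whose silencing sensitises or protects ovarian cancer cells against rucaparib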 (primary screen)
System: human ovarian carcinoma lines grown from tumours: OCI-P5x (papillary serous) and OCI-C5x (clear cell)
Reagents: siRNA pool against human genes, 1.25 pmol siRNA per well
Duration: 72 h or 96 h, depending on the cell culture
Treatment: rucaparib 20 µM (about IC30) or vehicle, present until read-out
Rucaparib or vehicle: Vehicle
Cell line: OCI-C5x (clear cell)
Measured: 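Luminescent ATP-based viability assay read 72 or 96 h after transfection, depending on culture, given as normalised percent viability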
Scale: viability, normalised: higher = more viable cells remaining
Call rule: 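a well counts as a hit if its normalised viability is under 80 percent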
Calls: active = viability under 80%; inactive = viability 80% or more
Shown is an unselected part of the about 2,100 reagents, under one of the conditions tested. 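Calls flag viability under 80% in either arm, not effects specific to rucaparib; the reference for percent is not stated.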 Reagent sequences are not shown. Not stated in the record: the 100% reference.

no.	gene	technical replicate	viability, normalised (%)	call
1	CDK18 (GeneID 5129)	1	48.1	active
2	CDK18 (GeneID 5129)	2	53.5	active
3	CDK18 (GeneID 5129)	3	44.9	active
4	HECTD3 (GeneID 79654)	1	60.6	active
5	HECTD3 (GeneID 79654)	2	73.9	active
6	HECTD3 (GeneID 79654)	3	66	active
7	STK16 (GeneID 8576)	1	94.2	inactive
8	STK16 (GeneID 8576)	2	58.6	active
9	STK16 (GeneID 8576)	3	52.1	active
10	CDK16 (GeneID 5127)	1	54.1	active
11	CDK16 (GeneID 5127)	2	75.3	active
12	CDK16 (GeneID 5127)	3	67.9	active
13	ADCK2 (GeneID 90956)	1	58.8	active
14	ADCK2 (GeneID 90956)	2	71.3	active
15	ADCK2 (GeneID 90956)	3	51.8	active
16	PRDM15 (GeneID 63977)	1	43.4	active
17	PRDM15 (GeneID 63977)	2	47.2	active
18	PRDM15 (GeneID 63977)	3	35.2	active
19	GLRA2 (GeneID 2742)	1	29.1	active
20	GLRA2 (GeneID 2742)	2	41.5	active
21	GLRA2 (GeneID 2742)	3	39.1	active
22	TAF12 (GeneID 6883)	1	39.2	active
23	TAF12 (GeneID 6883)	2	35.7	active
24	TAF12 (GeneID 6883)	3	51	active
